This passage reports binding results from article PMC11443667.

Protein sequences, listed by entry. Tags and fused reporters are not part of them.
UniProt Q12778: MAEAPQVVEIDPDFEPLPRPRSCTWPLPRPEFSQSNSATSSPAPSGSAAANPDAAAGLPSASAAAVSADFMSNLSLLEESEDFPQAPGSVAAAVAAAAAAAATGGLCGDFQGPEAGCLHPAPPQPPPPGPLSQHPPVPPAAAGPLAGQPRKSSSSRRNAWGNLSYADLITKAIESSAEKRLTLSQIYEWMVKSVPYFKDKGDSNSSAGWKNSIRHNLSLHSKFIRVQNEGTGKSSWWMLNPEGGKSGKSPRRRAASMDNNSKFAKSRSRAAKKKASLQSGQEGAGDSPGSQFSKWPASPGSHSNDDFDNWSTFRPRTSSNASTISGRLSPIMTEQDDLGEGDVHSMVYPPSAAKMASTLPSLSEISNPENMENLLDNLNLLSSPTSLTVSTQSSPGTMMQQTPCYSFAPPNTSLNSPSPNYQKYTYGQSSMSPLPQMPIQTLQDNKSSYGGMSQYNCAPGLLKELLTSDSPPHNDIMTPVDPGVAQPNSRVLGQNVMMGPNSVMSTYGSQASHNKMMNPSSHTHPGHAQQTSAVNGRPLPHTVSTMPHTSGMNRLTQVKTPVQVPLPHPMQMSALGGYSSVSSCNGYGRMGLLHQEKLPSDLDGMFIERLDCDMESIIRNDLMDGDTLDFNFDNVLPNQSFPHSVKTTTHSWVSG

No constants are given. Whether binding was seen depends on the method and setting. Binding seen in cells or lysates may run through a third protein. Some entries that bind do so weakly or less than the wild type.

In this assay the target is T1, APPL1 (human (endogenous in HUVEC)) (UniProt Q9UKG1).
T1 sequence: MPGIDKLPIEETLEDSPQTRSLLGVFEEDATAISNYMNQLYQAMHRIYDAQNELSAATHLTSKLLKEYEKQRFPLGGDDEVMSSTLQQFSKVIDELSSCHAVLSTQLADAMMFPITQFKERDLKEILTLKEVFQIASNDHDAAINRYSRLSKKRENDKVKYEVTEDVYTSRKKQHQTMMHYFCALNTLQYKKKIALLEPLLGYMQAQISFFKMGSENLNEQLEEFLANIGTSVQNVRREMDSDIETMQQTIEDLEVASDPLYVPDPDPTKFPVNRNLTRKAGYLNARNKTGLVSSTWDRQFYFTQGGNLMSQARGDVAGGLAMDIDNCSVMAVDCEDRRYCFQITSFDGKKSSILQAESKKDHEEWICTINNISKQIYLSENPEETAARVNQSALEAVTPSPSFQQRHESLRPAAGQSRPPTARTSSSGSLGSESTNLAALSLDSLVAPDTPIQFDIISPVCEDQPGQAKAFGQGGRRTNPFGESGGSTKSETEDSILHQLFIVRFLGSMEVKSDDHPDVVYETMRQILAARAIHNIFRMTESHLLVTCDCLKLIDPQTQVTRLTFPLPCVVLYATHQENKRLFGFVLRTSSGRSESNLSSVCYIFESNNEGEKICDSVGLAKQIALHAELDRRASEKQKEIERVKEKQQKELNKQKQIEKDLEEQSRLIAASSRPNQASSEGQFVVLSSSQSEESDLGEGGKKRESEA
The experiment in a line: co-IP; co-immunoprecipitation of APPL1 and Foxo1, with or without APN treatment; cells, antibodies and direction not told in the main text (Figure S6).

In the case of Foxo1 (from UniProt Q12778 1-655), the binding result was “binds”.
